This experiment deals with baboon factor XII (baboon). Nature of the experiment: Western blot of plasma after SDS-PAGE. (In general: A western blot detects proteins with antibodies after separation by electrophoresis.)

No constants are given. Whether binding was seen depends on the method and setting. Binding calls can cover weak binding; strength is not graded here.

B1: monoclonal anti-human fXII antibody AB042 (antibody, V domains shown)
VH: EVQLQQSGAELVRPGASVKLSCTASGFNIKDDYMHWVKQRPEQGLEWIGWIDPENGDTEYASKFQGKATITSDTSSNTAYLQLSSLTSEDTAVYYCTENYYGSSFFAYWGQGTLVTVSA
VL: DIVMTQATPSVPVTPGESVSISCRSSKSLLHSNGITYLYWFLQRPGQSPQRLIYYMSNLASGVPDRFSGRGSGTDFTLRISRVEAEDVGVYYCMQSLEYPYTFGGGTKLEIKR
notes: Mouse hybridoma IgG raised in fXII knockout mice immunized with human fXII
B1: the binding entry is given as “binds”.

(Values after patent US20150315292A1 (VANDERBILT UNIVERSITY, published 2015).)
